# From the supplement of paper PMC8256030
# Values joined by “and” are separate entries in the source; they are usually repeats but may differ in a detail not shown here. Identical values can stand only once. This is one part of the list. Repeats in this data set agree poorly, so a single value says little.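 HEK293T cells were given each compound shortly before transfection with a reporter in which red mCherry is followed by the SARS-CoV-2 frameshift element and then GFP in the −1 frame, so GFP appears only after frameshifting.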
# System: SARS-CoV-2 -1 PRF reporter mCherry-FSE-GFP(-1)
# Experiment: percent effect, decrease of GFP/mCherry ratio (-1 PRF reporter) relative to controls; higher = stronger frameshift inhibition
# Details: 10 µM; 24 h; HEK293T
row,Structure (SMILES),percent effect
1,COC(=O)Nc1nc2cc(C(=O)c3cccs3)ccc2[nH]1 [nocodazole],-12.5%
2,CCN[C@H]1C[C@H](C)S(=O)(=O)c2sc(S(N)(=O)=O)cc21 [dorzolamide],3.98%
3,CC(C(=O)O)c1ccc2c(c1)CC(=O)c1ccccc1S2 (centres undefined) [zaltoprofen],-0.598%
4,C[C@]12CCC(=O)C=C1[C@@H]1C[C@@H]1[C@H]1[C@@H]3[C@@H]4C[C@@H]4[C@@]4(CCC(=O)O4)[C@@]3(C)CC[C@@H]12 [drospirenone],-0.864% and -1.64%
5,Nc1c(CC(=O)O)cccc1C(=O)c1ccc(Br)cc1 [Xibrom],-4.09%
6,O=C(O)c1ccc(-n2nc(-c3ccccc3O)nc2-c2ccccc2O)cc1 [deferasirox],-7.33%
7,CC(=O)O[C@H]1Cc2ccccc2N(C(N)=O)c2ccccc21 [Eslicarbazepine acetate],0.793%
8,CC1CCCC(C)N1CCCCNC(=O)C(Oc1ccccc1)c1ccccc1 (centres undefined) [oxiramide],-5.37%
9,C[S+](CC[C@H](N)C(=O)[O-])C[C@H]1O[C@@H](n2cnc3c(N)ncnc32)[C@H](O)[C@@H]1O (some centres undefined) [S-Adenosylmethionine],-0.171%
10,C[C@@H]1C[C@H]2[C@@H]3CCC4=CC(=O)C=C[C@]4(C)[C@@]3(F)[C@@H](O)C[C@]2(C)[C@@]1(O)C(=O)CO [dexamethasone],-0.53% and -9.85%
11,CO[C@H]1C[C@H](O[C@@H]2/C(C)=C\C[C@@H]3C[C@@H](C[C@]4(C=C[C@H](C)[C@@H](C(C)C)O4)O3)OC(=O)[C@@H]3C=C(C)[C@@H](O)[C@H]4OC/C(=C/C=C\[C@@H]2C)[C@]43O)O[C@@H](C)[C@H]1O[C@H]1C[C@@H](OC)[C@H](NC(C)=O)[C@H](C)O1,-4.37%
12,CC[C@]1(O)C[C@@H]2CN(CCc3c([nH]c4ccccc34)[C@@](C(=O)OC)(c3cc4c(cc3OC)N(C)[C@H]3[C@@](O)(C(=O)OC)[C@H](OC(C)=O)[C@]5(CC)C=CCN6CC[C@]43[C@@H]65)C2)C1,-0.238%
13,O=C(NCCCN1CCOCC1)c1ccc(Cl)cc1 [eprobemide],-0.921%
14,COc1ccc(CCNCC(O)COc2cccc(C)c2)cc1OC (centres undefined) [bevantolol],-4.79%
15,Cc1ccc(Nc2c(F)cccc2Cl)c(CC(=O)O)c1 [lumiracoxib],-2.68%
16,CC(C)c1nc(CN(C)C(=O)N[C@H](C(=O)N[C@@H](Cc2ccccc2)C[C@H](O)[C@H](Cc2ccccc2)NC(=O)OCc2cncs2)C(C)C)cs1 [ritonavir],-3.42%
17,CC(C)c1ccccc1 [Sucralfate],-6.66%

row,Structure (SMILES),percent effect
1,OCCN1CCN(CC/C=C2/c3ccccc3Sc3ccc(Cl)cc32)CC1 [zuclopenthixol],-4.67%
2,CCCCCCCCCCCCCCCCCCCCCCO,-0.422%
3,CN(C)[C@@H]1C(=O)C(C(=O)NCNCCCC[C@H](N)C(=O)O)=C(O)[C@@]2(O)C(=O)C3=C(O)c4c(O)cccc4[C@@](C)(O)[C@H]3C[C@@H]12 [lymecycline],-4.64%
4,O=C1CC2(CCCC2)CC(=O)N1CCCCN1CCN(c2ncccn2)CC1 [buspirone],1.65% and -10.9%
5,C[N+](C)(C)[C@@H](Cc1c[nH]c(=S)[nH]1)C(=O)[O-] [Ergothioneine],2.4%
6,Cc1cccc(C)c1NC(=O)CN(CC(=O)O)CC(=O)O [lidofenin],-0.673%
7,C[C@@H](O)CCCCn1c(=O)c2c(ncn2C)n(C)c1=O [lisofylline],-1.95%
8,CC(C)(C)C(O)/C=C/c1ccc2c(c1)OCO2 (centres undefined) [stiripentol],2.02%
9,CCOCC(O)COc1ccc(NC(=O)CC[S+](C)C)cc1 (centres undefined) [suplatast tosilate],-1.21%
10,CC(=O)NCCCS(=O)(=O)O,1.72%
11,O=P(O)(O)OC(Cn1cncn1)(Cn1cncn1)c1ccc(F)cc1F [fosfluconazole],-0.391%
12,CC(N)(Cc1ccc(O)cc1)C(=O)O (stereo not drawn) [racemetirosine],-3.83%
13,C[C@]12CC[C@@H]3c4ccc(O)cc4CC[C@H]3[C@@H]1CC[C@@H]2OC(=O)CCC1CCCC1,-11%
14,NS(=O)(=O)c1cc(C(=O)O)cc(N2CCCC2)c1Oc1ccccc1 [piretanide],0.961%
15,Nc1nc(=O)n([C@@H]2CS[C@H](CO)O2)cc1F [emtricitabine],3.92%
16,CNCC[C@H](Oc1cccc2ccccc12)c1cccs1 [duloxetine],-4.75%
17,CCCNC(=O)NS(=O)(=O)c1ccc(Cl)cc1 [chlorpropamide],2.22%
